Data as given in PubChem BioAssay AID652259 (Drosophila RNAi Screening Center, 2013).
The deposit covers about 22,000 reagents; shown is an unselected part of those with a known target gene and a result. Over the whole deposit, 233 (1.1%) are marked active. 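Light values are raw, unnormalised plate reads; the ratio scores behind the reporter calls were not deposited.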 A number with no mark means an inactive call. Names joined by + are all predicted targets of the reagent. The record does not give: the amount of reagent, the time to read-out, the dose of the treatment.

Screen: 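Genome-wide hunt for genes that control Wingless pathway activity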 (primary screen)
System: Drosophila clone 8 imaginal disc epithelial cells
Reagent: long dsRNA against Drosophila genes
Challenge: pathway stimulated by co-transfected Wingless expression plasmid
Measurement: 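Firefly luciferase from a tcf-site Wingless reporter, measured alongside co-transfected Renilla luciferase that tracks transfection; pathway stimulated by a Wingless plasmid; the firefly-to-Renilla ratio is not deposited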
Reading the numbers: firefly reporter light: higher = more Wg reporter light, before normalisation; Renilla control light: higher = more transfected or surviving cells
Rule for the call: 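Strong candidates differ from their plate mean by at least two out of four per-plate statistical tests; weak candidates meet just one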
Calls: active = candidate regulator (raises or lowers reporter); inactive = not a candidate

| predicted target | DRSC id | reporter change call, replicate 1 | firefly reporter light, replicate 1 | firefly reporter light, replicate 2 | Renilla control light, replicate 1 | Renilla control light, replicate 2 |
| --- | --- | --- | --- | --- | --- | --- |
| CG15282 | DRSC22620 | – | 7.61e5 | 7.56e5 | 1.92e5 | 3828 |
| Prat2 | DRSC09692 | – | 7015 | – | 3707 | – |
| Rab9 | DRSC03281 | – | 3122 | 8712 | 1126 | 3072 |
| CG6511 | DRSC10656 | – | 1176 | 7104 | 1217 | 3572 |
| Rim2 | DRSC00073 | – | 25718 | – | 12200 | – |
| Rim2 | DRSC00520 | – | 11313 | – | 4860 | – |
| Rim2 | DRSC22699 | – | 5.12e5 | 5.75e5 | 1.27e5 | 1.19e5 |
| Trpgamma | DRSC03626 | – | 2818 | 9563 | 1368 | 4824 |
| Elp3 | DRSC00448 | – | 2877 | 5264 | 619 | 1917 |
| CG5567 | DRSC10517 | – | 5425 | – | 2134 | – |
| CG15127 | DRSC05802 | – | 19094 | – | 15248 | – |
| CG15127 | DRSC06549 | – | 7594 | – | 2808 | – |
| CG12310 | DRSC09878 | – | 6902 | – | 1913 | – |
| CR14798 | DRSC17956 | – | 26440 | – | 18477 | – |
| CG14562 | DRSC11723 | – | 13693 | – | 2989 | – |
| CG31231 | DRSC13308 | – | 3104 | – | 1356 | – |
| gus | DRSC04885 | – | 19494 | – | 7532 | – |
| gus | DRSC04886 | – | 3162 | 5920 | 395 | 2026 |
| Prx1 | DRSC10741 | – | 4352 | – | 1989 | – |
| link | DRSC06368 | – | 5381 | – | 1437 | – |
| Kr-h1 | DRSC00908 | – | 13996 | – | 5665 | – |
| Kr-h1 | DRSC03355 | – | 10996 | – | 4073 | – |
| Npc2b | DRSC15464 | – | 13176 | – | 3277 | – |
| CG15743 | DRSC19709 | – | 23473 | – | 11930 | – |
| CG6204 | DRSC15991 | – | 3186 | 5976 | 1129 | 1841 |
| salm | DRSC03606 | – | 2992 | 6171 | 812 | 3846 |
| CG2765 | DRSC04315 | – | 12756 | – | 3685 | – |
| CG7091 | DRSC12944 | – | 2899 | – | 1205 | – |
| CG7091 | DRSC16197 | – | 10656 | – | 2800 | – |
| CG13297 | DRSC09971 | – | 1585 | 9060 | 1098 | 3002 |
| CG12730 | DRSC17885 | – | 20564 | – | 9748 | – |
| CG13965 | DRSC02307 | – | 3285 | 5690 | 688 | 2476 |
| mRpL1 | DRSC16251 | – | 12230 | – | 3239 | – |
| PIP5K59B | DRSC04290 | – | 7349 | – | 2226 | – |
| PIP5K59B | DRSC04403 | – | 3144 | 9819 | 692 | 2812 |
| Ag5r | DRSC19327 | – | 2642 | 7456 | 1040 | 2800 |

A stretch taken from the entries so far, as a working copy:
| predicted target | DRSC id | reporter change call, replicate 1 | firefly reporter light, replicate 1 | firefly reporter light, replicate 2 | Renilla control light, replicate 1 | Renilla control light, replicate 2 |
| --- | --- | --- | --- | --- | --- | --- |
| CG12310 | DRSC09878 | – | 6902 | – | 1913 | – |
| CR14798 | DRSC17956 | – | 26440 | – | 18477 | – |
| CG14562 | DRSC11723 | – | 13693 | – | 2989 | – |
| CG31231 | DRSC13308 | – | 3104 | – | 1356 | – |
| gus | DRSC04885 | – | 19494 | – | 7532 | – |
| gus | DRSC04886 | – | 3162 | 5920 | 395 | 2026 |
| Prx1 | DRSC10741 | – | 4352 | – | 1989 | – |
| link | DRSC06368 | – | 5381 | – | 1437 | – |
| Kr-h1 | DRSC00908 | – | 13996 | – | 5665 | – |
| Kr-h1 | DRSC03355 | – | 10996 | – | 4073 | – |
| Npc2b | DRSC15464 | – | 13176 | – | 3277 | – |
| CG15743 | DRSC19709 | – | 23473 | – | 11930 | – |
| CG6204 | DRSC15991 | – | 3186 | 5976 | 1129 | 1841 |
| salm | DRSC03606 | – | 2992 | 6171 | 812 | 3846 |
| CG2765 | DRSC04315 | – | 12756 | – | 3685 | – |

The list goes on:
| predicted target | DRSC id | reporter change call, replicate 1 | firefly reporter light, replicate 1 | firefly reporter light, replicate 2 | Renilla control light, replicate 1 | Renilla control light, replicate 2 |
| --- | --- | --- | --- | --- | --- | --- |
| Pcl | DRSC07503 | – | 20693 | – | 5228 | – |
| CG2162 | DRSC08557 | – | 2845 | – | 627 | – |
| CLS | DRSC15642 | – | 23531 | – | 17496 | – |
| Pp2B-14D | DRSC20270 | – | 10291 | – | 8332 | – |
| CG5004 | DRSC19929 | – | 23008 | – | 9851 | – |
| CG5004 | DRSC19930 | – | 28992 | – | 14259 | – |
| CG5004 | DRSC20123 | – | 17835 | – | 4673 | – |
| Lip2 | DRSC02577 | – | 3044 | 5130 | 1270 | 3178 |
| Lip2 | DRSC02578 | – | 2755 | 7712 | 1094 | 3897 |
| Nep2 | DRSC12126 | – | 8393 | – | 2160 | – |
| Nep2 | DRSC21398 | – | 3.99e5 | 4.50e5 | 2.20e5 | 1.63e5 |
| Ts | DRSC00795 | – | 3872 | 8294 | 1195 | 2400 |
| Ts | DRSC22168 | – | 4.58e5 | 5.60e5 | 2.20e5 | 2.23e5 |
| CheB42b | DRSC22878 | – | 5.58e5 | 6.49e5 | 2.23e5 | 1.87e5 |
| Vps52 | DRSC03050 | – | 1776 | 5898 | 643 | 1076 |
| dpa | DRSC07604 | – | 2313 | 5622 | 777 | 2071 |
| CG31752 | DRSC22599 | – | 6.19e5 | 5.53e5 | 2.03e5 | 1.44e5 |
| CG14780 | DRSC18566 | – | 13592 | – | 13482 | – |
| wls | DRSC10605 | – | 6032 | – | 1872 | – |
| CG3457 | DRSC18509 | – | 2332 | 8000 | 1360 | 2840 |
| Pfdn5 | DRSC16183 | – | 4071 | 7769 | 1936 | 2457 |
| CR18166 | DRSC17260 | – | 3860 | – | 1303 | – |
| CR18166 | DRSC18147 | – | 15895 | – | 8165 | – |
| Syx5 | DRSC03432 | – | 11264 | – | 2550 | – |
| eIF1A | DRSC16937 | Wg reporter activity raised (active) | 1.13e5 | – | 2544 | – |
| CG9586 | DRSC03270 | – | 3122 | 6874 | 1234 | 4484 |
| Gcn5 | DRSC11248 | – | 5112 | – | 992 | – |
| CG32985 | DRSC02634 | – | 2230 | 8505 | 563 | 2673 |
| CG5646 | DRSC15853 | – | 2154 | 6457 | 839 | 2108 |
| CG7772 | DRSC20056 | – | 3731 | 11414 | 1477 | 3576 |
| Hr51 | DRSC06627 | – | 6672 | – | 2741 | – |
| Hr51 | DRSC22829 | – | 3.49e5 | 3.55e5 | 1.61e5 | 1.89e5 |
| mthl1 | DRSC19905 | – | 14597 | – | 7192 | – |
| inaF-B + inaF-D + inaF-C + 1 more | DRSC20342 | – | 20345 | – | 10400 | – |
| LpR2 | DRSC13726 | – | 5228 | – | 2004 | – |
| LpR2 | DRSC13728 | – | 3096 | – | 1452 | – |
| LpR2 | DRSC15655 | – | 2626 | 3545 | 872 | 1514 |
| LpR2 | DRSC15658 | – | 20272 | – | 8708 | – |
| RpL36A | DRSC03055 | Wg reporter activity raised | 11366 | 3896 | 2400 | 932 |
| CG11788 | DRSC06084 | – | 4640 | – | 1751 | – |
| CG5770 | DRSC06954 | – | 17952 | – | 6256 | – |
| Fdx1 | DRSC11167 | – | 9548 | – | 3875 | – |
| CG16896 | DRSC04284 | – | 9737 | – | 3497 | – |
| CG18788 | DRSC02697 | – | 2390 | 6028 | 947 | 2290 |
| Atg4b | DRSC15988 | – | 10069 | – | 3029 | – |
| Sodh2 | DRSC16865 | – | 22932 | – | 6717 | – |
| CG32488 | DRSC08549 | – | 6493 | – | 1621 | – |
| CG32488 | DRSC21537 | – | 9.31e5 | 8.80e5 | 4.52e5 | 4.47e5 |
| CG3198 | DRSC18292 | – | 11399 | – | 7772 | – |
| Coprox | DRSC01996 | – | 11463 | 8.58e5 | 2919 | 4.65e5 |
| CG9503 | DRSC20186 | – | 29776 | – | 14945 | – |
| CG9503 | DRSC21766 | – | 3.96e5 | 4.23e5 | 1.61e5 | 1.72e5 |
| CG14963 | DRSC08422 | – | 4480 | – | 1833 | – |
| Jon65Aii | DRSC10665 | – | 2265 | 8327 | 1184 | 3980 |
| Gr63a | DRSC08438 | – | 3803 | – | 2229 | – |
| Antp | DRSC12490 | Wg reporter activity raised (active) | 13346 | – | 1011 | – |
| CG1910 | DRSC15400 | – | 1891 | 6733 | 934 | 2234 |
